Laboratory results taken from the supplement of paper PMC4604168 (melanoma cell lines).
The other results are listed elsewhere or left out. Repeats are few or missing, and single values can be far off.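 Imaging used 1,536-well plates; nuclei positive for cleaved PARP by antibody were divided by total DNA-stained nuclei to yield the apoptosis fraction. Doses for screening kept most cells viable, and cell lines differ markedly in resting and induced cleaved-PARP levels.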

tested on: MEL-HO; test: cleaved PARP positive nuclei fraction relative to DMSO control; melanoma cells; higher = more apoptosis; settings: library dose: low library concentration; 72 h

With `N#CC[C@H](C1CCCC1)n1cc(-c2ncnc3[nH]ccc23)cn1` [ruxolitinib] + Cn1sc(=O)n(Cc2ccccc2)c1=O [TDZD-8] (first compound 1 µM, partner dose 0.4 µM) as the compound, how does the “cleaved PARP positive nuclei fraction” value read?
The value was 98.4%.

With `CC[C@]1(O)C[C@H]2CN(CCc3c([nH]c4ccccc34)[C@@](C(=O)OC)(c3cc4c(cc3OC)N(C=O)[C@H]3[C@@](O)(C(=O)OC)[C@H](OC(C)=O)[C@]5(CC)C=CCN6CC[C@]43[C@@H]65)C2)C1` [vincristine] + C[C@@H](Oc1cc(-c2cnn(C3CCNCC3)c2)cnc1N)c1c(Cl)ccc(F)c1Cl [Crizotinib] (first compound 0.0001 µM, partner dose 0.2 µM) as the compound, how does the “cleaved PARP positive nuclei fraction” value read?
The value was 177%.

How did the “cleaved PARP positive nuclei fraction” value turn out when `O=c1[nH]nc(Sc2ncc([N+](=O)[O-])s2)n1-c1ccc2c(c1)OCCO2` + CN(c1ncccc1CNc1nc(Nc2ccc3c(c2)CC(=O)N3)ncc1C(F)(F)F)S(C)(=O)=O [PF562271] (first compound 0.2 µM, partner dose 0.08 µM) was run?
The value was 59.6%.

How did the “cleaved PARP positive nuclei fraction” value turn out when `O=C(Nc1cc(C(F)(F)F)cc(C(F)(F)F)c1)c1cc(Cl)ccc1O` + Nc1ccn([C@@H]2O[C@H](CO)[C@@H](O)C2(F)F)c(=O)n1 [gemcitabine] (first compound 0.016 µM, partner dose 0.0004 µM) was run?
The value was 42%.

How did the “cleaved PARP positive nuclei fraction” value turn out when `COc1cc([C@@H]2c3cc4c(cc3[C@@H](O[C@@H]3O[C@@H]5CO[C@@H](C)O[C@H]5[C@H](O)[C@H]3O)[C@H]3COC(=O)[C@H]23)OCO4)cc(OC)c1O` [etoposide] + CCCS(=O)(=O)Nc1ccc(F)c(C(=O)c2c[nH]c3ncc(Cl)cc23)c1F [PLX4720] (first compound 0.02 µM, partner dose 0.08 µM) was run?
The value was 43.2%.

For `CC[C@]1(O)C[C@H]2CN(CCc3c([nH]c4ccccc34)[C@@](C(=O)OC)(c3cc4c(cc3OC)N(C=O)[C@H]3[C@@](O)(C(=O)OC)[C@H](OC(C)=O)[C@]5(CC)C=CCN6CC[C@]43[C@@H]65)C2)C1` [vincristine] + Cn1c(=O)n(-c2ccc(C(C)(C)C#N)cc2)c2c3cc(-c4cnc5ccccc5c4)ccc3ncc21 [NVP-BEZ235] (first compound 0.0001 µM, partner dose 0.004 µM), which “cleaved PARP positive nuclei fraction” value is on record?
Its value is 142%.

With `COc1cc([C@@H]2c3cc4c(cc3[C@@H](O[C@@H]3O[C@@H]5CO[C@@H](C)O[C@H]5[C@H](O)[C@H]3O)[C@H]3COC(=O)[C@H]23)OCO4)cc(OC)c1O` [etoposide] + CN(c1ncccc1CNc1nc(Nc2ccc3c(c2)CC(=O)N3)ncc1C(F)(F)F)S(C)(=O)=O [PF562271] (first compound 0.02 µM, partner dose 0.08 µM) as the compound, how does the “cleaved PARP positive nuclei fraction” value read?
The value was 174%.

Which “cleaved PARP positive nuclei fraction” value does the source give for `Cc1cc(Nc2cc(N3CCN(C)CC3)nc(Sc3ccc(NC(=O)C4CC4)cc3)n2)n[nH]1` [Tozasertib] + Cc1cc(Nc2cc(N3CCN(C)CC3)nc(/C=C/c3ccccc3)n2)n[nH]1 [ENMD2076] (first compound 0.006 µM, partner dose 0.04 µM) here?
The value was 43.9%.

Which “cleaved PARP positive nuclei fraction” value does the source give for `O=C(Nc1cc(C(F)(F)F)cc(C(F)(F)F)c1)c1cc(Cl)ccc1O` + C[C@]1(c2nc3c(C(N)=O)cccc3[nH]2)CCCN1 [Veliparib] (first compound 0.016 µM, partner dose 1.4 µM) here?
Its value is 226%.

With `O=C(Nc1cc(C(F)(F)F)cc(C(F)(F)F)c1)c1cc(Cl)ccc1O` + Nc1ncn([C@H]2C[C@H](O)[C@@H](CO)O2)c(=O)n1 [decitabine] (first compound 0.016 µM, partner dose 0.1 µM) as the compound, how does the “cleaved PARP positive nuclei fraction” value read?
Its value is 135%.

For `CC[C@]1(O)C[C@H]2CN(CCc3c([nH]c4ccccc34)[C@@](C(=O)OC)(c3cc4c(cc3OC)N(C=O)[C@H]3[C@@](O)(C(=O)OC)[C@H](OC(C)=O)[C@]5(CC)C=CCN6CC[C@]43[C@@H]65)C2)C1` [vincristine] + Cn1c(Nc2ccc(C(F)(F)F)cc2)nc2cc(Oc3ccnc(-c4ncc(C(F)(F)F)[nH]4)c3)ccc21 [CHIR265] (first compound 0.0001 µM, partner dose 0.08 µM), which “cleaved PARP positive nuclei fraction” value is on record?
The value was 314%.

For `Cc1cc(Nc2cc(N3CCN(C)CC3)nc(Sc3ccc(NC(=O)C4CC4)cc3)n2)n[nH]1` [Tozasertib] + N#CC[C@H](C1CCCC1)n1cc(-c2ncnc3[nH]ccc23)cn1 [ruxolitinib] (first compound 0.006 µM, partner dose 1 µM), which “cleaved PARP positive nuclei fraction” value is on record?
The value was 34.1%.

`CC[C@]1(O)C[C@H]2CN(CCc3c([nH]c4ccccc34)[C@@](C(=O)OC)(c3cc4c(cc3OC)N(C=O)[C@H]3[C@@](O)(C(=O)OC)[C@H](OC(C)=O)[C@]5(CC)C=CCN6CC[C@]43[C@@H]65)C2)C1` [vincristine] + C=C(c1ccc(C(=O)O)cc1)c1cc2c(cc1C)C(C)(C)CCC2(C)C [Bexarotene] (first compound 0.0001 µM, partner dose 2 µM) was tested. Which “cleaved PARP positive nuclei fraction” value did it give?
The value was 69.3%.

`O=C(/C=C/c1cccnc1)NCCCCC1CCN(C(=O)c2ccccc2)CC1` + C#Cc1cccc(Nc2ncnc3cc(OCCOC)c(OCCOC)cc23)c1 [erlotinib] (first compound 0.01 µM, partner dose 0.8 µM) was tested. Which “cleaved PARP positive nuclei fraction” value did it give?
The value was 140%.

With `Cc1cn(-c2cc(NC(=O)c3ccc(C)c(Nc4nccc(-c5cccnc5)n4)c3)cc(C(F)(F)F)c2)cn1` [nilotinib] + CO[C@H]1C[C@@H]2CC[C@@H](C)[C@@](O)(O2)C(=O)C(=O)N2CCCC[C@H]2C(=O)O[C@H]([C@H](C)C[C@@H]2CC[C@@H](OCCO)[C@H](OC)C2)CC(=O)[C@H](C)/C=C(\C)[C@@H](O)[C@@H](OC)C(=O)[C@H](C)C[C@H](C)/C=C/C=C/C=C/1C [everolimus] (first compound 0.2 µM, partner dose 0.02 µM) as the compound, how does the “cleaved PARP positive nuclei fraction” value read?
Its value is 116%.

`O=C(Nc1cc(C(F)(F)F)cc(C(F)(F)F)c1)c1cc(Cl)ccc1O` + Cn1c(Nc2ccc(C(F)(F)F)cc2)nc2cc(Oc3ccnc(-c4ncc(C(F)(F)F)[nH]4)c3)ccc21 [CHIR265] (first compound 0.016 µM, partner dose 0.08 µM) was tested. Which “cleaved PARP positive nuclei fraction” value did it give?
The value was 57.3%.

With `O=c1[nH]nc(Sc2ncc([N+](=O)[O-])s2)n1-c1ccc2c(c1)OCCO2` + OCc1c[nH]c2ccccc12 [Indole-3-carbinol] (first compound 0.2 µM, partner dose 0.8 µM) as the compound, how does the “cleaved PARP positive nuclei fraction” value read?
Its value is 119%.

Which “cleaved PARP positive nuclei fraction” value does the source give for `O=C(/C=C/c1cccnc1)NCCCCC1CCN(C(=O)c2ccccc2)CC1` + CO[C@H]1C[C@@H]2CC[C@@H](C)[C@@](O)(O2)C(=O)C(=O)N2CCCC[C@H]2C(=O)O[C@H]([C@H](C)C[C@@H]2CC[C@@H](OCCO)[C@H](OC)C2)CC(=O)[C@H](C)/C=C(\C)[C@@H](O)[C@@H](OC)C(=O)[C@H](C)C[C@H](C)/C=C/C=C/C=C/1C [everolimus] (first compound 0.01 µM, partner dose 0.02 µM) here?
The value was 140%.

With `O=c1[nH]nc(Sc2ncc([N+](=O)[O-])s2)n1-c1ccc2c(c1)OCCO2` + CS(=O)(=O)CCNCc1ccc(-c2ccc3ncnc(Nc4ccc(OCc5cccc(F)c5)c(Cl)c4)c3c2)o1 [lapatinib] (first compound 0.2 µM, partner dose 0.8 µM) as the compound, how does the “cleaved PARP positive nuclei fraction” value read?
Its value is 70.4%.

Which “cleaved PARP positive nuclei fraction” value does the source give for `COc1cc([C@@H]2c3cc4c(cc3[C@@H](O[C@@H]3O[C@@H]5CO[C@@H](C)O[C@H]5[C@H](O)[C@H]3O)[C@H]3COC(=O)[C@H]23)OCO4)cc(OC)c1O` [etoposide] + CO[C@H]1C[C@@H]2CC[C@@H](C)[C@@](O)(O2)C(=O)C(=O)N2CCCC[C@H]2C(=O)O[C@H]([C@H](C)C[C@@H]2CC[C@@H](OCCO)[C@H](OC)C2)CC(=O)[C@H](C)/C=C(\C)[C@@H](O)[C@@H](OC)C(=O)[C@H](C)C[C@H](C)/C=C/C=C/C=C/1C [everolimus] (first compound 0.02 µM, partner dose 0.02 µM) here?
Its value is 99.8%.

Which “cleaved PARP positive nuclei fraction” value does the source give for `Cc1cn(-c2cc(NC(=O)c3ccc(C)c(Nc4nccc(-c5cccnc5)n4)c3)cc(C(F)(F)F)c2)cn1` [nilotinib] + Nc1cccc2c1CN(C1CCC(=O)NC1=O)C2=O [lenalidomide] (first compound 0.2 µM, partner dose 1 µM) here?
Its value is 114%.

How did the “cleaved PARP positive nuclei fraction” value turn out when `Cc1ccc(Nc2nccc(N(C)c3ccc4c(C)n(C)nc4c3)n2)cc1S(N)(=O)=O` [Pazopanib] + CNC(=O)c1cc(Oc2ccc(NC(=O)Nc3ccc(Cl)c(C(F)(F)F)c3)cc2)ccn1 [sorafenib] (first compound 0.4 µM, partner dose 0.4 µM) was run?
Its value is 82.5%.

For `O=c1[nH]nc(Sc2ncc([N+](=O)[O-])s2)n1-c1ccc2c(c1)OCCO2` + CS(=O)(=O)c1ccc(C(=O)Nc2ccc(Cl)c(-c3ccccn3)c2)c(Cl)c1 [vismodegib] (first compound 0.2 µM, partner dose 1 µM), which “cleaved PARP positive nuclei fraction” value is on record?
The value was 81.2%.
